Among all 390,000 compounds or so, about 910 (0.23%) were called active. This list was built around the results that the source calls inconclusive (neither active nor inactive); the mix of calls is not that of the screen. Calls come from the whole dose curve; as a rule, active = well fitted inhibition curve with a large enough effect; inconclusive = small, poorly fitted or top-dose-only effect; inactive = no such curve, though single readings can be large or run the other way. Potencies of inconclusive entries are doubtful fits and often do not repeat.
The molecules below were run against Ubiquitin carboxyl-terminal hydrolase 1 (Homo sapiens) (UniProt O94782) (assay: Inhibitors of USP1/UAF1: Primary Screen). Conditions: recombinant USP1/UAF1, Ub-Rhodamine cleavage fluorescence; activity change, negative = inhibition: at 57.1 µM (top of the series).
In short: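 In this screen, compounds sit with the deubiquitinase complex (1nM) for 15 min at room temperature before Ub-Rho is added at 150nM final. Fluorescence rise is then followed for 6 reads every 60 seconds.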
% is set by controls: 0 for no effect and ±100 for the full control effect; potency is the fitted concentration of half-maximal effect.
Note: nearly all actives have a fitted effect of over 60% in size.

The chains behind the UniProt entries cited, without tags or fusion partners. Where a name states a change or a piece, a line headed by the entry shows the natural chain unless it says otherwise.
UniProt O94782: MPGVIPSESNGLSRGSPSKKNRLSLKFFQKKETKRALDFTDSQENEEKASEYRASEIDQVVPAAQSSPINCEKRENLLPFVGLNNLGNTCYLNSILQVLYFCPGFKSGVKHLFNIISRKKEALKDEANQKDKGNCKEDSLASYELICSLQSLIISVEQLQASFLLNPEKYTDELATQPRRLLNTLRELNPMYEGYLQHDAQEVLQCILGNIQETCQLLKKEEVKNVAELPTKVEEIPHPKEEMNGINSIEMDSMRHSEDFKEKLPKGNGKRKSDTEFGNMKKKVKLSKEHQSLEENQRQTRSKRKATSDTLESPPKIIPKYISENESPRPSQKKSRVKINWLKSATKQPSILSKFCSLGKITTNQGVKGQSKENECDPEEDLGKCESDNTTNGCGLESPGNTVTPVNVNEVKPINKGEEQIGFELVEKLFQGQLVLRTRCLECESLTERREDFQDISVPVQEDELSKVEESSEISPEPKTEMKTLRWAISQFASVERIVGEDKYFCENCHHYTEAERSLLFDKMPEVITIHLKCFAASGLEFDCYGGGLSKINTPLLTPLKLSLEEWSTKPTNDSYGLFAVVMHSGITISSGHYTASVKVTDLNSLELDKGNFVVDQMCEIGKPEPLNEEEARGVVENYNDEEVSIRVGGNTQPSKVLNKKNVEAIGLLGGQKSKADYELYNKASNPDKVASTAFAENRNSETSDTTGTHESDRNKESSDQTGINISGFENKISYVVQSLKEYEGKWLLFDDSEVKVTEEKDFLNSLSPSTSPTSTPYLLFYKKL

| Structure (SMILES) | Potency | activity change, negative = inhibition |
| --- | --- | --- |
| CCOC(=O)c1c(NC(=O)C2C3C=CC(C3)C2C(=O)O)sc2c1CC(C)(C)OC2 (stereo not drawn) | inconclusive: 28.2 µM [inhibitor, partial curve] |  |
| COc1ccc(-c2nc3ccccc3o2)cc1NC(=O)c1cc(Br)ccc1OC | inconclusive: 0.282 µM [inhibitor, full curve] |  |
| CC(Oc1ccccc1)C(=O)Nc1nnc(S(=O)(=O)N(C)c2ccccc2)s1 (stereo not drawn) | inconclusive: 50.1 µM [inhibitor, partial curve, poor fit] |  |
| O=S(=O)(c1ccccc1)N1CCN(C(=S)Nc2ccc(F)cc2)CC1 |  | inactive: -22.9% |
| Cc1ccc(NC(=O)c2ccc(-c3ccccc3)s2)cc1 | inconclusive: 10 µM [inhibitor, partial curve] |  |
| CC1CCN(c2ccc(C(=O)OCC(=O)NCCN3C(=O)CSC3=O)cc2[N+](=O)[O-])CC1 | inconclusive: 0.251 µM [inhibitor, full curve, poor fit] |  |
| O=C(C1CC1)N(Cc1ccco1)c1nc(-c2ccccc2)cs1 | inconclusive: 17.8 µM [inhibitor, partial curve] |  |
| CC(C)CC(NC(=O)OC(C)(C)C)c1cn([C@@H](CCCCNC(=O)OC(C)(C)C)C(=O)N2CCN(C(=O)OC(C)(C)C)CC2)nn1 (stereo partly drawn) | inconclusive: 6.31 µM [inhibitor, partial curve, poor fit] |  |
| CC(=O)N1CCc2cc(Br)cc(S(=O)(=O)CCC(=O)NCc3ccc(F)cc3)c21 | inconclusive: 0.447 µM [inhibitor, full curve, poor fit] |  |
| COc1cn(CC(=O)Nc2ccc(C)cc2)c(CN2CCCCC2)cc1=O |  | inconclusive: -16.9% [inhibitor] |
| Cc1cc(C)cc(NCc2nnc3n2CCCCC3)c1 | inconclusive: 0.112 µM [inhibitor, full curve, poor fit] |  |
| CO/N=C/C1CCN(c2ncc(C(F)(F)F)cc2Cl)C1=O (stereo not drawn) | inconclusive: 7.08 µM [inhibitor, single point] |  |
| CC(=O)c1ccc(NC(=O)c2cc(C)nc3ccccc23)cc1 | inconclusive: 0.447 µM [inhibitor, full curve, poor fit] |  |
| CCSc1nnc(-c2ccccc2N=Cc2c(C)[nH]n(-c3ccccc3)c2=O)c(=O)[nH]1 | inconclusive: 50.1 µM [inhibitor, partial curve, poor fit] |  |
| CSc1ccc(CCNC(=O)Cn2ncc3c([nH]c4ccccc43)c2=O)cc1 | inconclusive: 0.708 µM [inhibitor, full curve] |  |
| CCOC(=O)c1cc2c(=O)n3ccccc3nc2n(CCOC)c1=NC(=O)c1c(-c2c(F)cccc2Cl)noc1C | inactive |  |
| Cc1ccc(C2C(C#N)=C(N)SC(N)=C2C#N)c(C)c1 |  | inactive: -17.8% |
| Brc1ccc(C2Nc3cccc4cccc(c34)N2)o1 | inconclusive: 7.94 µM [inhibitor, single point] |  |
| COc1ccc(CCNC(=O)CN(c2ccc(OC)cc2)S(C)(=O)=O)cc1 | inconclusive: 39.8 µM [inhibitor, partial curve, poor fit] |  |

Given field by field: two of the compounds above
CC(Oc1ccccc1)C(=O)Nc1nnc(S(=O)(=O)N(C)c2ccccc2)s1 (stereo not drawn)
  Potency: inconclusive: 50.1 µM [inhibitor, partial curve, poor fit]
CSc1ccc(CCNC(=O)Cn2ncc3c([nH]c4ccccc43)c2=O)cc1
  Potency: inconclusive: 0.708 µM [inhibitor, full curve]

The list continues.

| Structure (SMILES) | Potency | activity change, negative = inhibition |
| --- | --- | --- |
| CCN(CC)c1ccc(/C=N/Nc2cccc(C)c2)c(O)c1 | inconclusive: 31.6 µM [inhibitor, partial curve] |  |
| COc1ccc2[nH]c3c(c2c1)CCN1C(=O)N([C@@H](C)C(=O)NCc2ccco2)C(=O)[C@]31C | inconclusive: 8.91 µM [inhibitor, partial curve] |  |
| O=C1C(NS(=O)(=O)c2ccc(Br)cc2)=C(N2CCCCC2)C(=O)c2ccccc21 | inconclusive: 31.6 µM [inhibitor, partial curve] |  |
| COC(=O)CN1C(=O)C(O)(CC(=O)c2ccc(Cl)cc2)c2ccccc21 (stereo not drawn) | inconclusive: 0.355 µM [inhibitor, full curve] |  |
| CCC(=O)N1c2ccc(S(=O)(=O)CCC(=O)N3CCN(c4ccc(F)cc4)CC3)cc2CC1C (stereo not drawn) | inconclusive: 39.8 µM [inhibitor, partial curve, poor fit] |  |
| CCCn1c2ccccc2c2cnn(CC(=O)NCCCN3CCN(c4ccccc4)CC3)c(=O)c21 | inconclusive: 22.4 µM [inhibitor, partial curve] |  |
| CC(C)C(NS(=O)(=O)c1cccs1)C(=O)N(C)Cc1ccccc1 (stereo not drawn) | inconclusive: 0.708 µM [inhibitor, full curve, poor fit] |  |
| Cc1cccc(N2CCN(C(=O)Cc3ccc(Br)cc3)CC2)c1C | inconclusive: 89.1 µM [inhibitor, partial curve, poor fit] |  |
| O=C(C[C@H]1C[C@H](C(=O)N2CCOCC2)[C@@]2(CCC3CCCC3)c3[nH]c4ccc(Cl)cc4c3CCN2C1=O)NCCCn1ccnc1 | inconclusive: 70.8 µM [inhibitor, partial curve, poor fit] |  |
| COc1ccc(NC(=S)N2CCC(NC(=O)c3ccco3)CC2)cc1 | inconclusive: 31.6 µM [inhibitor, single point] |  |
| NC(=O)c1ccc([N+](=O)[O-])cc1SCc1ccccc1 |  | inactive: -3.77% |
| CN(C)C(=O)C(CCN1CCC(O)(c2ccc(Cl)cc2)CC1)(c1ccccc1)c1ccccc1 |  | inactive: 16.1% |
| CCOC(=O)N1CCN(C(=O)c2ccc(Cn3c(=S)[nH]c4cc(C(=O)OC)ccc4c3=O)cc2)CC1 |  | inactive: -22.8% |
| COc1cc(SC)ccc1C(=O)OCC(=O)NC1CC1 | inconclusive: 5.01 µM [inhibitor, partial curve] |  |
| Cc1ccc(NC(=O)C2CCCN(S(=O)(=O)c3cccc4nsnc34)C2)c(C)c1 (stereo not drawn) | inconclusive: 3.16 µM [inhibitor, full curve] |  |
| COc1cc([N+](=O)[O-])cc(/C=N/NC(=O)c2cc(-c3ccccc3)nc3ccccc23)c1O | inconclusive: 20 µM [inhibitor, partial curve] |  |
| Cc1ccc(NS(=O)(=O)c2c(C)nc3sc(C)c(C)n3c2=O)cc1F | inconclusive: 11.2 µM [inhibitor, full curve, poor fit] |  |
| O=C(c1ccco1)N1CCN(C(=O)C2CCN(S(=O)(=O)c3cccs3)CC2)CC1 | inconclusive: 6.31 µM [inhibitor, single point] |  |
| COc1cc(NC(=O)c2cccc(COCC(F)(F)C(F)F)c2)cc(OC)c1OC | inconclusive: 31.6 µM [inhibitor, partial curve] |  |

Source: PubChem BioAssay AID743255 (National Center for Advancing Translational Sciences (NCATS), 2014)
